Data on 56 compounds can be found in PubChem BioAssay AID1487 (National Center for Advancing Translational Sciences (NCATS), 2009).

The nature of the experiment: qHTS Assay for Modulators of Lamin A Splicing. The following applies: HeLa LMNA splicing GFP/RFP minigene ratio, 48 h. Put shortly:
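Read-out is the ratio of GFP to DsRed2 object intensity, acquired by 488 nm laser-scanning cytometry on HeLa lamin A-EGFP minigene reporter cells. Compound incubation 48 hrs at 37 °C in Opti-MEM with 2% FBS; DMSO 0.5% final.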
In general terms: In qHTS, concentration-response curves come from the screen itself.

[1] abbreviates: measured here: GFP splicing reporter channel.
Setting [2] is: measured here: RFP viability control channel.

Structures are written as SMILES. The list shows a part of the results. The main result of the screen is listed elsewhere. These columns were measured beside it and carry no call. The list favours compounds with an active or inconclusive main result. Words in brackets tell the shape of the fitted curve; partial curves, single points and poor fits give uncertain potencies.

Broadly, the AC50 is the concentration at which the activity in the assay is half-maximal. Regarding `COC(=O)c1cc(-c2ccc(NC(C)=O)cc2)nc2ccccc12`, the AC50 under setting [1] is 31.6 µM [falling, single point].
Take `CN(c1ccccc1)c1ccc(/C=C(\C#N)c2nnc3n2CCCCC3)cc1[N+](=O)[O-]`: the AC50 under setting [2] is 20 µM [rising, partial curve].
Regarding `Cc1cccc(S(=O)(=O)C(C#N)c2nc3ccccc3nc2N2CC(C)OC(C)C2)c1` (stereo not drawn), the AC50 under setting [2] was 11.2 µM [rising, partial curve].
On to `COc1ccc(CNC(=O)c2cc(-c3ccc(OC)c(OC)c3)nc3n[nH]c(-c4ccc(C)cc4)c23)cc1`, for which the AC50 under setting [2] was 11.2 µM [falling, partial curve].
Consider `O=C(c1ccc2c(c1)OCO2)N1CCCc2ccccc21`, for which the AC50 under setting [2] is 11.2 µM [rising, partial curve, poor fit].
Take `COc1cccc(Cn2c(=O)c(-c3cn(C)c4ccccc34)nc3cnc(N4CCNCC4)nc32)c1`: the AC50 under setting [1] was 28.2 µM [falling, single point] and the AC50 under setting [2] is 25.1 µM [falling, single point].
As for `c1ccc(-c2csc(=Nc3cccnc3)n2CC2CCCO2)cc1` (stereo not drawn), the AC50 under setting [2] is 12.6 µM [rising, partial curve].
In the case of `COc1ccc(CC(=O)NCc2n[nH]c(=S)n2-c2ccc(F)cc2)cc1`, the AC50 under setting [1] was 0.0447 µM [rising, full curve].
As to `O=C(CSc1ccc2nc(-c3ccccc3)cn2n1)Nc1ccccc1`, the half-maximal activity concentration (AC50) under setting [1] was 0.0501 µM [rising, full curve].
On to `CCCOc1ccc(OC(=O)c2ccc(Br)o2)cc1`, for which, under setting [1], the AC50 was 35.5 µM [falling, single point].
Consider `CC(C)N1CCC(N2CCN(CCCn3cccn3)CC2CCO)CC1` (stereo not drawn), for which, under setting [2], the AC50 is 0.0224 µM [falling, full curve, poor fit].
In the case of `O=C(NNC(=O)c1cccc(S(=O)(=O)N2CCN(c3ccccc3)CC2)c1)c1ccc(Cl)cc1`, the AC50 under setting [2] was 35.5 µM [rising, single point].
For `CCN(CC)C(=O)C(=O)c1cn(CC(=O)NCc2ccc3c(c2)OCO3)c2ccccc12`, the AC50 under setting [1] is 1.58 µM [rising, partial curve, poor fit].
As to `O=c1c(N2CCN(c3ccc(F)cc3)CC2)csc2ccc(F)cc12`, the AC50 under setting [2] was 10 µM [rising, partial curve].
On the same count and under the same terms, then `O=C(Nc1nc(-c2ccc(S(=O)(=O)N3CCCCCC3)cc2)cs1)c1ccccc1`, with 3.98 µM [rising, single point]; and `c1ccc(Nc2nc3ccccc3n3cnnc23)cc1`, with 15.8 µM [rising, single point].
Consider `COc1ccccc1-c1nc2cc3ccccc3cc2nc1-c1ccccc1`, for which the AC50 is 10 µM [rising, partial curve] under setting [1] and 11.2 µM [rising, partial curve] under setting [2].
Take `COc1ccc2nc(N3CCN(C(=O)CS(=O)(=O)c4ccc(C)cc4)CC3)sc2c1`: the AC50 under setting [1] was 10 µM [falling, partial curve].
For `Cc1ccc(-c2cc(C(=O)N/N=C/c3c[nH]c4ccccc34)[nH]n2)cc1`, the AC50 under setting [2] is 4.47 µM [rising, full curve, poor fit].
`C[C@@H](C(=O)OCC(=O)NCCc1ccc(S(N)(=O)=O)cc1)N1C(=O)C2CCCCC2C1=O` (stereo partly drawn): under setting [2], the AC50 is 0.794 µM [falling, full curve].
As for `COc1ccc(C)cc1NC1(c2ccccc2)C(=O)c2ccccc2C1=O`, under setting [1], the AC50 was 0.0316 µM [falling, full curve, poor fit].
`O=c1nc(/C=C/c2ccc(-c3ccc(F)cc3)o2)cc(C(F)(F)F)[nH]1`: the AC50 under setting [2] is 3.16 µM [rising, single point].
Consider `CCOc1ccc(CCNC(=O)CN2CCN(Cc3ccccc3C)C2=O)cc1OCC`, for which the AC50 under setting [2] was 35.5 µM [rising, single point].
On to `Cc1cccc(OCC(=O)Nc2ccc3c(c2)nc(CCN2CCN(C)CC2)n3C)c1`, for which the AC50 is 11.2 µM [rising, partial curve] under setting [1] and 14.1 µM [rising, single point] under setting [2].
As for `O=S(=O)(Cc1ccccc1)N1CCCC(c2nc(-c3ccc(F)cc3)no2)C1` (stereo not drawn), under setting [2], the AC50 is 14.1 µM [rising, single point].
In the case of `c1ccc2c(C3=NNC(=NC4CC4)SC3)c[nH]c2c1`, the AC50 is 8.91 µM [rising, partial curve] under setting [1] and 15.8 µM [rising, partial curve, poor fit] under setting [2].
For `CCCN(CCC)C(=O)CSc1nc2n[nH]c(C)c2c(=N)n1-c1ccc(OCC)cc1`, under setting [2], the AC50 is 31.6 µM [rising, single point].
As to `CCNc1ncc2nc(-c3cn(C)c4ccccc34)c(=O)n(Cc3cccs3)c2n1`, the AC50 under setting [1] was 4.47 µM [falling, partial curve].
As to `C=CCn1c(COc2ccccc2)nnc1SCC(=O)N/N=C/c1cc(Cl)ccc1O`, under setting [2], the AC50 was 35.5 µM [rising, single point].
For `Cc1ccc(-n2nnnc2CSc2nnc(-c3ccc(O)cc3)o2)cc1`, the AC50 under setting [1] is 0.00794 µM [falling, full curve, poor fit].
Take `CC(C)CCNC(=S)Nc1ccc(Br)cc1`: the AC50 was 35.5 µM [rising, single point] under setting [1] and 35.5 µM [rising, single point] under setting [2].
Take `Cc1cc(C)c(C(=O)CSc2nc3ccccc3c(=O)[nH]2)cc1C`: the AC50 under setting [2] is 0.00398 µM [falling, full curve, poor fit].
Regarding `COc1ccc(NC(=O)c2[nH]c(C)c(C(C)=O)c2C)cc1Cl`, the AC50 is, setting by setting: under setting [1], 22.4 µM [rising, single point]; under setting [2], 7.08 µM [rising, partial curve, poor fit].
Take `O=[N+]([O-])c1cc(S(=O)(=O)NC2=NCCCCC2)ccc1Cl`: the AC50 under setting [2] was 0.00447 µM [rising, full curve, poor fit].
Take `Cc1ccc(-c2cnc(C3CC3)o2)cc1S(=O)(=O)Nc1ccc(F)cc1Cl`: the AC50 is 35.5 µM [rising, single point] under setting [1] and 22.4 µM [rising, single point] under setting [2].
As to `CCOC(=O)CN1N=C(/C=C/c2ccc(C)cc2)CCC1=O`, the AC50 is, setting by setting: under setting [1], 12.6 µM [falling, single point]; under setting [2], 10 µM [falling, partial curve].
Take `Cc1ccc(Cn2ccc(NC(=O)c3nc4ncccn4n3)n2)cc1`: the AC50 under setting [2] was 0.0794 µM [falling, full curve, poor fit].
As for `Cc1c(Cl)cccc1NC(=S)NCc1cccs1`, the AC50 under setting [1] was 31.6 µM [rising, single point] and the AC50 under setting [2] is 31.6 µM [rising, single point].
For the compound `Cc1ccc(-c2c3c(=O)n(C)c(=O)n(C)c3cn2-n2cnnc2)cc1`, the AC50 under setting [2] is 31.6 µM [rising, single point].
Same read-out and setting: then `O=C(NCc1ccccc1)C(c1cccs1)N(C(=O)c1csnn1)C1CC1` (stereo not drawn), with 35.5 µM [rising, single point]; and `CC(=O)Nc1ccccc1OCC(=O)NCCC1=CCCCC1`, with 5.01 µM [rising, partial curve].
Take `Cc1ccc(C)c(N2CCN(C(=O)CCc3c(C)nn(-c4ccc(N5CCCC5)nn4)c3C)CC2)c1`: the AC50 by setting is: under setting [1], 0.00316 µM [falling, full curve, poor fit]; under setting [2], 0.00282 µM [falling, full curve, poor fit].
For `O=c1c2ccccc2c(=O)n(Cc2ccccc2)n1Cc1ccccc1`, the AC50 reads like this: under setting [1], 11.2 µM [rising, single point]; under setting [2], 20 µM [rising, single point].
For `CC(=O)CSc1nc(N(C)C)nc(N(C)C)n1`, the AC50 is, setting by setting: under setting [1], 0.0794 µM [falling, full curve, poor fit]; under setting [2], 0.0794 µM [falling, full curve].
`CC(C)CNC(=S)N1CCC(NC(=O)c2ccco2)CC1`: the AC50 under setting [2] was 22.4 µM [falling, single point].
In the case of `O=c1cc(CNc2ccc(Br)cc2)nc2sccn12`, the AC50 under setting [2] was 28.2 µM [rising, single point].
`CCOC(=O)c1c(C=O)c(C)n(Cc2ccccc2Cl)c1C`: the AC50 under setting [2] is 12.6 µM [rising, single point].
Turning to `CCOC(=O)c1c(/N=C/N(C)C)sc(/C=N/Nc2ccccc2)c1-c1ccccc1Cl`, under setting [2], the AC50 was 11.2 µM [rising, partial curve].
`Cc1ccccc1CSc1nc2c([nH]c3ccccc32)c(=O)n1-c1ccccc1`: the AC50 is 14.1 µM [falling, partial curve, poor fit] under setting [1] and 25.1 µM [falling, partial curve, poor fit] under setting [2].
For `CC1=C(C(=O)OCC2CCCO2)C(c2coc3ccccc3c2=O)C2=C(CCCC2=O)N1` (stereo not drawn), the AC50 under setting [2] was 0.02 µM [falling, full curve, poor fit].
In the case of `CCOc1ccc(NS(=O)(=O)c2ccc(C(=O)N3CCN(c4ncccn4)CC3)cc2)cc1`, the AC50 was 0.00501 µM [rising, full curve, poor fit] under setting [1] and 0.00501 µM [rising, full curve, poor fit] under setting [2].
Take `CCC(c1nnnn1Cc1ccccc1)N1CCN(c2ccccc2)CC1` (stereo not drawn): the AC50 runs as follows: under setting [1], 10 µM [falling, partial curve, poor fit]; under setting [2], 20 µM [falling, partial curve].
As to `CO/N=C/CC(=O)c1ccc(-c2ccccc2)cc1`, the AC50 by setting is: under setting [1], 11.2 µM [falling, partial curve]; under setting [2], 11.2 µM [falling, single point].
As for `Cc1ccc(C(=O)N2CCN(c3ccccc3)CC2)cc1NC(=O)c1nsc2ccccc12`, the AC50 under setting [1] is 1.12 µM [rising, partial curve].
For the compound `Cc1cccc(NC(=O)/C(=C\c2ccc([N+](=O)[O-])o2)NC(=O)c2ccc(Cl)cc2)c1`, the AC50 was 12.6 µM [rising, single point] under setting [1] and 20 µM [rising, partial curve, poor fit] under setting [2].
For the compound `O=C(Nc1nnc(C2=COCCO2)o1)c1ccc(S(=O)(=O)N2CCCC2)cc1`, under setting [1], the AC50 was 0.00316 µM [rising, full curve, poor fit].
